Three compounds from US20130225510A1, “METHODS FOR THE USE OF BRANCHED CHAIN AMINO ACIDS” (Nestec S.A., priority 2005, published 2013) can be followed below.

The data set can be described thus: taste test of bitterness, equal molar concentrations of dipeptide and free BCAA. As to conditions: for bitterness compared with the free branched chain amino acid: equal molar concentrations.
Where [1] appears, read: tasted after being added to a standard vanilla oral nutritional supplement.
Setting [2] is: tasted after being dissolved in water.

Peptide text beside a SMILES is read from it.

In the case of `CC[C@H](C)[C@H](NC(=O)[C@H](C)N)C(=O)O` [alanyl-isoleucine] (H-Ala-Ile-OH), the “bitterness compared with the free branched chain amino acid” value by setting is: under setting [1], “less bitterness than the free BCAA”; under setting [2], “less bitterness than the free BCAA”.

As to `CC(C)C[C@H](NC(=O)[C@H](C)N)C(=O)O` [alanyl-leucine] (H-Ala-Leu-OH), for the setting “dissolved dipeptide vs nutritional product with approximately 3.2 g free leucine per 8 oz. serving”, the “bitterness compared with RESOURCE Support” value is reported as “less bitterness than RESOURCE® Support®”. Moreover, the “bitterness compared with the free branched chain amino acid” value by setting is: under setting [1], “less bitterness than free leucine”; under setting [2], “less bitterness than free leucine”.

Regarding `CC(C)[C@H](NC(=O)[C@H](C)N)C(=O)O` [alanyl-valine] (H-Ala-Val-OH), the “bitterness compared with the free branched chain amino acid” value reads like this: under setting [1], “less bitterness than the free BCAA”; under setting [2], “less bitterness than the free BCAA”.
